Source: patent US20260242730A1 (POINTLOMA BIOSCIENCES, published 2026)
Residue numbers refer to the chain shown, from its start. These are yes or no findings as the source states them, for the method shown. Some results given as binding are weak or reduced against the parent protein; the word gives no strength.

Amino acid sequences for entries named in this document (tags omitted). Residues count along the entry.
UniProt P09758, residues 27-323: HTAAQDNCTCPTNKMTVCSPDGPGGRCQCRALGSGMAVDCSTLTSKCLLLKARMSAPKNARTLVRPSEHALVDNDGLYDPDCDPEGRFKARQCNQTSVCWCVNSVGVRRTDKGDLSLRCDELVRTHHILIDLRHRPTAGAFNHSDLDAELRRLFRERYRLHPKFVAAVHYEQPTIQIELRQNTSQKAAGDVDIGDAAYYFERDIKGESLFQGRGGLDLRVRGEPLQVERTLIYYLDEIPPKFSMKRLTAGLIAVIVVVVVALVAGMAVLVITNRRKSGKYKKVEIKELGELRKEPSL

B1: anti-TROP2 #TP1 VHH (VHH)
VHH: EVQVVESGGGLAQPGGSLRLSCAASGFWFSTYAMSWARQAPGKGLEWVSGIYADGSATYYADSVKGRFTISRDNAKNTLYLHMNSLKPEDTALYYCAQGYSDYDRRVGGYDYWGQGTQVTVSS
B2: anti-TROP2 #TP2 VHH (VHH)
VHH: B1 VHH with V4L, W28T, A57G, H82Q, V107L, G109E
B3: anti-TROP2 #TP18 VHH (VHH)
VHH: QVQLVESGGGLVQPGGSLRLSCAASSSIFSIAIMGWYRQAPGKQRELVATISATDVTHYADSVKGRFTISRDDAWNAVYLQMDSLKAEDTAVYYCNSYLLQQRVPWGQGTQVTVSS
B4: anti-TROP2 #TP19 VHH (VHH)
VHH: B3 VHH with Q1E, L4V, S26R, I28V, S30N, T50S, H58S, A87S
B5: anti-TROP2 #TP11 VHH (VHH)
VHH: QVQLVESGGGLVQPGGSLRVSCAASGFRLDYYAIGWFRQAPGKEREGVSSINYSSGSTVYADSVKGRFTISRGNAKNTVYLQMNSLKPEDTAVYYCAVGTVVTSLAPYEYDYWGQGTQVTVSS
B6: anti-TROP2 #TP12 VHH (VHH)
VHH: QVQLVESGGGLVQPGGSLRLSCAASRFTLDYYAIGWIRQAPGKEREGVSCISSSGGSTNYADSVKGRFTISRDNAKNTVYLQMNSLKPEDTGVYYCAATTYACSGYVPRAYEYDYWGQGTQVTVSS
B7: anti-TROP2 #TP14 VHH (VHH)
VHH: EVQVVESGGGLVQPGGSLRLSCAVSGFTLDWYAIGWFRQAPGKEHEGVACIDPSERSTYADPVKGRFTISRDNAKNTVHLQMNSLKPEDTAVYYCAADTLPCFFYGSMWPPPDNWGQGTQVTVSS
B8: anti-TROP2 #TP16 VHH (VHH)
VHH: QVQLVESGGGLVQPGGSLRLSCAASGFAFSFYVMTWYRQAPGKQREQVAAITSYGGANYADSVKGRFTISRDNAKNTVYLQMNALTSEDTAVYSCNAHLGPYDYWGQGTQVTVSS
B9: anti-TROP2 #TP5 VHH (VHH)
VHH: QLQLVESGGGLVQPGGSLKLSCAASGFTLDYWTIGWFRQAPGKEREGVSCISSSDGSTYYADSVKGRFTISRDNAKRTVNLQMNSLKPEDTAVYYCAAGSLGYCSRSTPQYEYDFWGQGTQVTVSS
B10: anti-TROP2 #TP8 VHH (VHH)
VHH: B9 VHH with K19R, I51V, D55G, S57I, A75E, N80Y, F115Y
B11: anti-TROP2 #TP7 VHH (VHH)
VHH: B9 VHH with K19R, T28S, D30E, Y31H, G56A, R77K, T78S, N80Y, P88L, F115Y
B12: anti-TROP2 #TP13 VHH (VHH)
VHH: EVQLVESGGGLVQPGGSLRLSCALSGFTKDYYGIGWFRQAPGKEREGVSCISVSGSSTNYADSVKGRFTISRDNAKNTVYLQMNSLKPEDTGVYYCAAAFMGSDYVVPEMSREYDYWGQGTQVTVSS
B13: anti-TROP2 #TP15 VHH (VHH)
VHH: QVQLVESGGGLVQPGGSLRLSCAVSGDIFSFYSMGWYRQAPGEQRELVAHITSGGSTHYADSVKGRFTISRDNAKNTVYLQMNSPKPEDTAVYYCNADLDYWVDSMGPYWGQGTQVTVSS
B14: anti-TROP2 #TP6 VHH (VHH)
VHH: QLQLVESGGGLVQPGGSLRLSCAASGTLDYWTVGWFRQAPGKEREGVSCISSSDSSTYYADSVKGRFTISRDNAKNTVYLQMNSLKPEDTAVYYCAAGSLGYCSRSTPQYEYDFWGQGTQVTVSS
B15: anti-TROP2 #TP9 VHH (VHH)
VHH: QVQLVESGGGLVQPGGSLRLSCAASGFSLDYWAIAWFRQAPGKEREGVSCSGSRGSTHYADSVKGRFTISRDNAKNTVYLQMNSLKPEDAGVYYCAVGSTLYSLTPYEYDYWGQGTQVTVSS
B16: anti-TROP2 #TP10 VHH (VHH)
VHH: B15 VHH with S28R, Y31H, A35G, R54D, G55E, H58Y, A90T, L101W
B17: anti-TROP2 #TP17 VHH (VHH)
VHH: EVQLVESGGGMVQPGGSLRLSCAFSGLTFSNYAMTWYRQAPGKERELVAGTPSPGGTTTYADSVKGRFTISRDNAEDTVYLQMNSLKPEDTAVYYCHARWMWPSDNAGMGYWGKGTLVTVSS
B18: anti-TROP2 #TP4 VHH (VHH)
VHH: QLQLVESGGGLVQPGGSLRLSCAASGFTLDDYAMRWFRQAPGKAREGVSCISRSDGTTYYADSVKGRFTISRNNAENTVYLQMNSLKPEDTAVYYCAADSLGCNGYSDWGVDYWAKGTLVTVSS

target: TROP2 on TROP2-positive cells (TROP2-CHOK1, MDA-MB-468, HCC1806, NCI-H1975, HPAF-II, N87) (human) (UniProt P09758); experiment: flow cytometry, phage staining of cells

Row | binding | Binder
1 | binds | B1
2 | binds | B2
3 | binds | B3
4 | binds | B4
5 | binds | B5
6 | binds | B6
7 | binds | B7
8 | binds | B8
9 | binds | B9
10 | binds | B10
11 | binds | B11
12 | binds | B12
13 | binds | B13
14 | binds | B14
15 | binds | B15
16 | binds | B16
17 | binds | B17
18 | binds | B18
